Results deposited as PubChem BioAssay AID504793 (Drosophila RNAi Screening Center, 2011)
In all, the deposit lists about 23,000 reagents; below is a random part of those with a known target gene and a result. In the full data, 62 (0.27%) are marked active. 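Calls come from follow-up tests whose scores are not deposited, so confirmed genes may have low counts here; counts are not normalised per plate.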 The raw values are shown without normalisation. A number with no mark means an inactive call. The numbers tell different reagents against one gene apart.

Assay: 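Knock-downs allowing continued mitosis even though DNA is damaged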 (primary screen)
Cells: Drosophila S2R+ cells
Reagent: long dsRNA against Drosophila genes, about 0.25 µg dsRNA per well
Time to read-out: 4 days of dsRNA, then 4 hours of drug before read-out
Conditions: doxorubicin 0.5 µM for 4 hours to cause double-strand breaks, in cells also given a low, harmless dose of dsRNA against nbs to sensitise the assay
Measurement: 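Mitotic index as the number of phospho-histone H3-positive cells in each well following doxorubicin, given as raw counts without normalisation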
Reading the numbers: mitotic cells: higher = more cells in mitosis, weaker G2 arrest
Hit rule: 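Genes are called active only when high mitotic counts were reproduced with independent dsRNAs and mitosis was checked for delay without damage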
Meaning of the calls: active = confirmed in follow-up tests; inactive = not confirmed

predicted target | dsRNA no. | mitotic cells, replicate 1 | mitotic cells, replicate 2
RpL6 | 1 | 17 | –
RpL6 | 2 | 21 | –
RpL6 | 3 | 6 | –
CG32642 | 1 | 1 | –
CG32642 | 2 | 3 | –
CG31343 | 1 | 4 | –
CG11378 | 1 | 6 | –
CG11378 | 2 | 3 | –
gek | 1 | 2 | –
CG4066 | 1 | 1 | –
CG4066 | 2 | 11 | –
Mocs1 | 1 | 11 | –
jar | 1 | 4 | –
CG32295 | 1 | 9 | –
CASK | 1 | 9 | –
CASK | 2 | 12 | –
CASK | 3 | 5 | –
CASK | 4 | 17 | –
CASK | 5 | 3 | –
l(3)07882 | 1 | 4 | –
Ilp7 | 1 | 6 | –
Ilp1 | 1 | 3 | –
Qtzl | 1 | 6 | –
CG9485 | 1 | 7 | –
CG6431 | 1 | 5 | –
Fancl | 1 | 3 | –
Act42A | 1 | 7 | –
Act42A | 2 | 7 | –
CG15756 | 1 | 17 | –
CG15756 | 2 | 7 | –
CG4483 | 1 | 8 | –
CG10510 | 1 | 7 | –
Ddr | 1 | 5 | –
Ddr | 2 | 1 | 11
Ddr | 3 | 7 | –
Ddr | 4 | 12 | –
CR33294 | 1 | 6 | –
Rtc1 | 1 | 11 | –
Muc68E | 1 | 25 | 14
Muc68E | 2 | 13 | –
Saysd1 | 1 | 7 | –
CG30033 | 1 | 9 | –
CG14441 | 1 | 9 | –
CG34342 | 1 | 4 | –
CG34342 | 2 | 8 | –
CG34342 | 3 | 3 | –

Reformatted: 4 of the entries above
predicted target	dsRNA no.	mitotic cells, replicate 1	mitotic cells, replicate 2
CASK	5	3	
l(3)07882	1	4	
Ilp7	1	6	
Ilp1	1	3	
